Measurements: the supplement of paper PMC10849652
This is one part of the list.

The chains behind the UniProt entries cited, without tags or fusion partners. Where a name states a change or a piece, a line headed by the entry shows the natural chain unless it says otherwise.
UniProt Q8IY22: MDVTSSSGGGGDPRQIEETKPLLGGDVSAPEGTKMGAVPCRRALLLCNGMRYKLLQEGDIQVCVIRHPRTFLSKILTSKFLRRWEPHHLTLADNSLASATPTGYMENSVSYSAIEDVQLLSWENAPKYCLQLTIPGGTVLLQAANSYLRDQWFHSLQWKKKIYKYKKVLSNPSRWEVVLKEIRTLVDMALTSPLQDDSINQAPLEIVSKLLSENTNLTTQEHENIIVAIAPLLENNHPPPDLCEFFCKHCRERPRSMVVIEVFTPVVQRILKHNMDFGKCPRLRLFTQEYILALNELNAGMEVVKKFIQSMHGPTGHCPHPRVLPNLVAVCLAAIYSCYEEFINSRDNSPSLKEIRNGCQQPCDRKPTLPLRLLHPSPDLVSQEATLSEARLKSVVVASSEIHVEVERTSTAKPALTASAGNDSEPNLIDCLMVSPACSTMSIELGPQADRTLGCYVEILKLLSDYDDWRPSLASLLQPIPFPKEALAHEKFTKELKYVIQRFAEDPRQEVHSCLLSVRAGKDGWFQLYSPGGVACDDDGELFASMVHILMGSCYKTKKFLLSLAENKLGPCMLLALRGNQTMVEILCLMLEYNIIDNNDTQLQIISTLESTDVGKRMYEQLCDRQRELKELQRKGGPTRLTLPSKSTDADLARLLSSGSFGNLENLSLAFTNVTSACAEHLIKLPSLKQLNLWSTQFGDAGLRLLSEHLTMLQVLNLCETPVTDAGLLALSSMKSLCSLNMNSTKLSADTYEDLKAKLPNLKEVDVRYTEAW
UniProt Q9H9A5, whole entry, looked up: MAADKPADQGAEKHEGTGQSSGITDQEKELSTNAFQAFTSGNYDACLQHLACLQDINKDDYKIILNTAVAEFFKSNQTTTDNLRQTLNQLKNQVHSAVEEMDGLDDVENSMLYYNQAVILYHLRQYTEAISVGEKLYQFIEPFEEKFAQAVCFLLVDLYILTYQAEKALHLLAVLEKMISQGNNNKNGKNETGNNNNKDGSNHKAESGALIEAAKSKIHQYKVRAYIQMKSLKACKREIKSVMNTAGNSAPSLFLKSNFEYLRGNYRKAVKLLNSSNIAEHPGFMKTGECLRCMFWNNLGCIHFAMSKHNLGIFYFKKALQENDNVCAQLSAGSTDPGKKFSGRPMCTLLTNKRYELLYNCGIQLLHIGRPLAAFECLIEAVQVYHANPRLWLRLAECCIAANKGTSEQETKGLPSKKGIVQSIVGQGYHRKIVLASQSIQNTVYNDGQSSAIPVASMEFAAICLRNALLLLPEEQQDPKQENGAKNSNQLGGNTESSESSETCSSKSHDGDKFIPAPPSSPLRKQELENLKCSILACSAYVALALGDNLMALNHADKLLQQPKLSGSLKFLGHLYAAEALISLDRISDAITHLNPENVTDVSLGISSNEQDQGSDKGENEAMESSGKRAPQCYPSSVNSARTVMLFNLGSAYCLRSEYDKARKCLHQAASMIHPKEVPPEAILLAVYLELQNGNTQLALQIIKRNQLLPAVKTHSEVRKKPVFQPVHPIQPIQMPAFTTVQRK
UniProt Q9NZ45: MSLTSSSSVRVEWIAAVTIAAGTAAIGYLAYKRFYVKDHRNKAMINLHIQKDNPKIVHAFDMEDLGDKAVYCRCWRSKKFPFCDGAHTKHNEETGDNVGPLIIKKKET
UniProt P09497: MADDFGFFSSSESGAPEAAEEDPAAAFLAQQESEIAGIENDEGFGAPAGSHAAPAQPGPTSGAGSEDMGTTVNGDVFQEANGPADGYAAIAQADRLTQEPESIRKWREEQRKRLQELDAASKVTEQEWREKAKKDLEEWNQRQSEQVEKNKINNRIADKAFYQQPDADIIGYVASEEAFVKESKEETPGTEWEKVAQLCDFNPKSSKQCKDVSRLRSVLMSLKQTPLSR
UniProt Q9NRG0: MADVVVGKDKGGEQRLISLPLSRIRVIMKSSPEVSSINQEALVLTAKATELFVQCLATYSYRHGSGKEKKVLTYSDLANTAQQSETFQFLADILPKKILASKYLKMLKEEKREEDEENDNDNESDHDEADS
UniProt O96005: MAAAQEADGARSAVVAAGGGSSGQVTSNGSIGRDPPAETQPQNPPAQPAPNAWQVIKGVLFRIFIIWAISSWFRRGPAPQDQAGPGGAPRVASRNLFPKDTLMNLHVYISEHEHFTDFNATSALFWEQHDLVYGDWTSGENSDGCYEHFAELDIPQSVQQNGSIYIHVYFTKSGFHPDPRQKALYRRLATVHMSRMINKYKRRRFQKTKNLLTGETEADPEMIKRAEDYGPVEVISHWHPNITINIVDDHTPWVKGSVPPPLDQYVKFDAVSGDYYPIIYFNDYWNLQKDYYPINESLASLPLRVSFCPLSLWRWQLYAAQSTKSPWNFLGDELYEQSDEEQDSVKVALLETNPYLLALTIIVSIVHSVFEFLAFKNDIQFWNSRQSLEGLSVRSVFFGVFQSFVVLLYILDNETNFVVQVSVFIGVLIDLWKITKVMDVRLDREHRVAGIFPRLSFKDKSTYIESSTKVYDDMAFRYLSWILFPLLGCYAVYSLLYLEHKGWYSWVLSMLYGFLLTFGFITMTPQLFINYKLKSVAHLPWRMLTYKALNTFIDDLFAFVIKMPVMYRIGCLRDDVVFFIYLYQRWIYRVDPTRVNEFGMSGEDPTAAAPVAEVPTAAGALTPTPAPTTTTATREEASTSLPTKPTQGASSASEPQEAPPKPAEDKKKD
UniProt Q9BT09: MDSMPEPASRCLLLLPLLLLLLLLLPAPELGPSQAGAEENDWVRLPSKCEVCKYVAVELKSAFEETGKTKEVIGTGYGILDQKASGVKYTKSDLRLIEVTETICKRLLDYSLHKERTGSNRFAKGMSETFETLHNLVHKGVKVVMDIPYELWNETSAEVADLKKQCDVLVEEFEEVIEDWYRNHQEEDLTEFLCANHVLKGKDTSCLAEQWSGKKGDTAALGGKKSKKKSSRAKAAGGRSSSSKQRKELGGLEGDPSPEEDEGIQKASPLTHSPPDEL
UniProt Q9H5X1: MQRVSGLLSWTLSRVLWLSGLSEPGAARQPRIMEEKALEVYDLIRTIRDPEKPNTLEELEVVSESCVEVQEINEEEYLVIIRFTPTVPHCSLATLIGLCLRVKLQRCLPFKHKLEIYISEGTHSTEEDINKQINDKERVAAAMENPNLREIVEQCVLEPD
UniProt P30085: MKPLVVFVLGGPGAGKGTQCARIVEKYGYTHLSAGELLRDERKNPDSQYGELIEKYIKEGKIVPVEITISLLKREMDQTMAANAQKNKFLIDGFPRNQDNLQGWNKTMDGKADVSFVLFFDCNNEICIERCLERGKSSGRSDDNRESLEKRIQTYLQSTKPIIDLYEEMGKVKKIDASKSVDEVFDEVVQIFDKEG
UniProt Q8NCH0: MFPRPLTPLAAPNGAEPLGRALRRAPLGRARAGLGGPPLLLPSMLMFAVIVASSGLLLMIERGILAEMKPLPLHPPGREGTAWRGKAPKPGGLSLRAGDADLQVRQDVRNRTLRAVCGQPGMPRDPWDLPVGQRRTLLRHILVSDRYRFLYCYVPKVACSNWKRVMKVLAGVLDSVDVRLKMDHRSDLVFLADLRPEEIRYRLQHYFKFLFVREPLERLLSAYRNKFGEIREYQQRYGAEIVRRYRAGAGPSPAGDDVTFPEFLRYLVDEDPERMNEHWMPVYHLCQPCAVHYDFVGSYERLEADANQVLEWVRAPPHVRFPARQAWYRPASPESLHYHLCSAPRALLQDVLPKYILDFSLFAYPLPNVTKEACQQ
UniProt P56749: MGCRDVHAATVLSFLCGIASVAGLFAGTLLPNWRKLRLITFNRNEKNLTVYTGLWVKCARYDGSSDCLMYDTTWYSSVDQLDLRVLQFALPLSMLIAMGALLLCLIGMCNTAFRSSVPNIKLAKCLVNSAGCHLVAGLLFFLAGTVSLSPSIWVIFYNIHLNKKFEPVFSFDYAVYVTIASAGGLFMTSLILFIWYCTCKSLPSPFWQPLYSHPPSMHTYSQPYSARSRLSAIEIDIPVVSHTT
UniProt Q7Z7K0: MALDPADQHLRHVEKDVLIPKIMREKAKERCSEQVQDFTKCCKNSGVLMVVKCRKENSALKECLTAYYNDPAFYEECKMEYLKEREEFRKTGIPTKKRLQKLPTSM
UniProt Q96KP4: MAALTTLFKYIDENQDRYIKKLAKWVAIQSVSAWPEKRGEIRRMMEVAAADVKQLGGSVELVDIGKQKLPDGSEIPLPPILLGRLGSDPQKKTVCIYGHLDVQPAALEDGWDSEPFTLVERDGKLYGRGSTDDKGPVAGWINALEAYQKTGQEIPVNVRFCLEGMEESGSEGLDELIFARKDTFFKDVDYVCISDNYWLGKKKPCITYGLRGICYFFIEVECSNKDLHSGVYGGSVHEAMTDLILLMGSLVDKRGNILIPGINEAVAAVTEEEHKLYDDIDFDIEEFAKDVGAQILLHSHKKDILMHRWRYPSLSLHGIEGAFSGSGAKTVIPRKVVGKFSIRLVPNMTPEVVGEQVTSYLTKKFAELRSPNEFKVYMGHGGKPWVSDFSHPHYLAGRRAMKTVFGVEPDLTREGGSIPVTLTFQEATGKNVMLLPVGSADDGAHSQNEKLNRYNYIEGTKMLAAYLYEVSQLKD
UniProt O95628: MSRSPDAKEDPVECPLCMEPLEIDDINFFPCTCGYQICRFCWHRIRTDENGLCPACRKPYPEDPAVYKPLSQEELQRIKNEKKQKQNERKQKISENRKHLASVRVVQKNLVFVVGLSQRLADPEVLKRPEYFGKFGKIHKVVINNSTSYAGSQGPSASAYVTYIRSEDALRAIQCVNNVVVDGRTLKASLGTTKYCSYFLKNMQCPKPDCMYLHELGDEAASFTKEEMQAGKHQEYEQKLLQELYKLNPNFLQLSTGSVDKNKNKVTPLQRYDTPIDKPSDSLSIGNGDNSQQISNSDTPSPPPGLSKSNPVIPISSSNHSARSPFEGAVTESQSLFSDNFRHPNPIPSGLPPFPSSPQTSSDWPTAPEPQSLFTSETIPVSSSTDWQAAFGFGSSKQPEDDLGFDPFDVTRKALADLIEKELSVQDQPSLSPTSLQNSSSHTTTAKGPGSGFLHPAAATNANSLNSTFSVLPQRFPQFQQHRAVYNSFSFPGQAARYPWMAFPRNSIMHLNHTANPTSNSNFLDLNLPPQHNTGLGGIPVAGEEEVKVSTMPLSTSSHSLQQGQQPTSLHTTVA
UniProt Q16740, whole entry, looked up: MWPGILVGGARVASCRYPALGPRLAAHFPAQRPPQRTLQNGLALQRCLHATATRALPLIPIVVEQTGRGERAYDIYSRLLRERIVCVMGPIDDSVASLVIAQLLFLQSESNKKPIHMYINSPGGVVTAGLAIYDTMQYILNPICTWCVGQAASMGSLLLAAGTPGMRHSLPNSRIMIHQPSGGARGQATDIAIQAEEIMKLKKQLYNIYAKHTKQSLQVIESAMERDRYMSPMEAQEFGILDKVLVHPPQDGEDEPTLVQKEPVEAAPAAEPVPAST
UniProt Q9GZY4: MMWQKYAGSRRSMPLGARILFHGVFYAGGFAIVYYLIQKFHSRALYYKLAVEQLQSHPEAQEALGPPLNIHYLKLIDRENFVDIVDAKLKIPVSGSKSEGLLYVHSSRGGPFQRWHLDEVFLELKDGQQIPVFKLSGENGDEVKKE
UniProt Q9P2E5: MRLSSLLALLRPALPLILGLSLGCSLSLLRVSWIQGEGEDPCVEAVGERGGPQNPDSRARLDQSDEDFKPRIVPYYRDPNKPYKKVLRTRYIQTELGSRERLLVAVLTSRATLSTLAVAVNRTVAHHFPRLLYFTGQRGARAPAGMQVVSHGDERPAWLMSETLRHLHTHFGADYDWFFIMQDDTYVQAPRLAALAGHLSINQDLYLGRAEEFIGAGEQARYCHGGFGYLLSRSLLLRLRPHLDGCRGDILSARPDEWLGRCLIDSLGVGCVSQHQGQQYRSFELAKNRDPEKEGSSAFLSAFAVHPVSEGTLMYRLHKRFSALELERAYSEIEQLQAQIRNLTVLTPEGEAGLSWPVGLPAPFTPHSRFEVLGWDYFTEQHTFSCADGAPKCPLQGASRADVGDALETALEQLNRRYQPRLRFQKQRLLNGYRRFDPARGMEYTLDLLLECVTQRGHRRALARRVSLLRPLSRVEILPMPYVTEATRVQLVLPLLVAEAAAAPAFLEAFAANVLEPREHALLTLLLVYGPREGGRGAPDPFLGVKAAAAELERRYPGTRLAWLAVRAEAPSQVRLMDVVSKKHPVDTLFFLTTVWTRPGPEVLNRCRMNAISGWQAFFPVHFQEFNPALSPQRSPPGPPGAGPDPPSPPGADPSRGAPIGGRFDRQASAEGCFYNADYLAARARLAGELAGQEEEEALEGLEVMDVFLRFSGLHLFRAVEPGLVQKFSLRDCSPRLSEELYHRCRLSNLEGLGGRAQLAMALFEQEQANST
UniProt Q92600, whole entry, looked up: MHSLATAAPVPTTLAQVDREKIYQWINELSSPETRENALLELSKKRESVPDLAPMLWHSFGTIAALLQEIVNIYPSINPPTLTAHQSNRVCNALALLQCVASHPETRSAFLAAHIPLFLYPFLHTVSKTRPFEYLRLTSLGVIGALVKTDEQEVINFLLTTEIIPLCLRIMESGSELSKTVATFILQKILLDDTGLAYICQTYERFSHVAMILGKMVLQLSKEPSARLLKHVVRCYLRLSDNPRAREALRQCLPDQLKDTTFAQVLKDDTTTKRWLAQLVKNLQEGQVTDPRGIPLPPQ

Columns and labels:
Experiment in all cases: log2 fold change, soluble protein after heating vs DMSO (PISA); higher = thermal stabilisation; K562 cells, 10 uM, 30 min; active = over 0.2 and 3.5 SD of the protein, either way, in both replicates (recomputed)
[1] = compound: C1=CC=C(C=C1)[C@H](COC2=CC3=C(C=C2)NC(=O)N3)NC(=O)C4=CC=CN(C4=O)CC5=CC(=C(C=C5)F)F
How it was run: (§1)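 For each measurement, 10 μM compound was applied for 30 min to K562 cells at 2×10^6 cells/mL. Aliquots were heated for 3 min across 48°C-58°C, pooled, and extracted in PBS with 0.5% NP-40 at 4°C; the supernatant after 21,000xg for 90 min was soluble protein. This was quantified by TMTpro 16plex LC-MS/MS with channel sums equalised, and thermal stability was reported relative to control samples from duplicates, on a log2 fold-change scale.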

[2] = compound: CC1=C(SC2=C1C(=N[C@H](C3=NN=C(N32)C)CC(=O)N)C4=CC=C(C=C4)Cl)C
How it was run: as §1

[3] = compound: CC1=C2C(=CC=C1)N=C(N(C2=O)C3=CC=CC=C3C)CN4C=NC5=C(N=CN=C54)N
How it was run: as §1

[4] = compound: Cc1sc2c(c1C)C(c1ccc(Cl)cc1)=N[C@@H](CC(=O)OC(C)(C)C)c1nnc(C)n1-2
How it was run: as §1

[5] = compound: c1ccc([C@@H]2C[C@H]2NC2CCNCC2)cc1
How it was run: as §1

Measured: log2 fold change

CNOT2 (UniProt Q9NZN8)
inactive: [1] 0.024 | [2] -0.014 | [3] 0.056 | [4] 0.031 | [5] -0.002

CKS1B (UniProt P61024)
inactive: [1] -0.004 | [2] 0.056 | [3] 0.024 | [4] -0.067 | [5] -0.02

CMIP (UniProt Q8IY22)
inactive: [1] -0.04

CLUH, A0A494C0R8
inactive: [1] -0.121 | [2] -0.004 | [3] 0.025 | [4] 0.152 | [5] 0.096

CNOT10 isoform 6 (UniProt Q9H9A5)
inactive: [1] 0.007 | [2] -0.11 | [3] 0.019 | [4] 0.004 | [5] 0.024

CLEC16A (UniProt Q2KHT3)
inactive: [1] 0.021 | [2] -0.014 | [3] -0.014 | [4] 0.025 | [5] 0.028

CMTR1 (UniProt Q8N1G2)
inactive: [1] -0.008 | [2] 0.033 | [3] 0.07 | [4] -0.009 | [5] -0.04

CISD1 (UniProt Q9NZ45)
inactive: [1] 0.061 | [2] 0.017 | [3] 0.004 | [4] 0.006 | [5] 0.026

CHMP5 (UniProt Q9NZZ3)
inactive: [1] 0.002 | [2] -0.045 | [3] 0 | [4] -0.008 | [5] 0.038

CNOT8 (UniProt Q9UFF9)
inactive: [1] -0.018 | [2] -0.097 | [3] 0.026 | [4] 0.044 | [5] -0.058

CIZ1 (UniProt Q9ULV3)
inactive: [1] 0.021 | [2] 0.047 | [3] 0.025 | [4] 0.062 | [5] 0.029

CLTB (UniProt P09497)
inactive: [1] 0.021 | [2] -0.01 | [3] -0.016 | [4] -0.01 | [5] -0.02

CNIH4 (UniProt Q9P003)
inactive: [1] 0.017 | [2] 0.001 | [3] -0.113 | [4] -0.139 | [5] 0.009

CHRAC1 (UniProt Q9NRG0)
inactive: [1] -0.08 | [2] 0.033 | [3] -0.016 | [4] -0.061 | [5] -0.054

CIB1 isoform 2 (UniProt Q99828)
inactive: [1] 0.01 | [2] 0.072 | [3] -0.026 | [4] 0.013 | [5] -0.016

CMAS (UniProt Q8NFW8)
inactive: [1] 0.032 | [2] -0.034 | [3] -0.053 | [4] 0.076 | [5] -0.016

CLPTM1 (UniProt O96005)
inactive: [1] 0.021 | [2] 0.022 | [3] 0.059 | [4] 0.021 | [5] -0.041

COL1A1 (UniProt P02452)
inactive: [1] 0.143 | [2] 0.102 | [3] 0.486 | [4] 0.114 | [5] 0.132

CNPY3 (UniProt Q9BT09)
inactive: [1] 0.025 | [2] 0.114 | [3] 0.007 | [4] -0.005 | [5] -0.01

CIAO2A (UniProt Q9H5X1)
inactive: [1] -0.091 | [2] 0.016 | [3] 0.063 | [4] -0.06 | [5] 0.016

CMPK1 (UniProt P30085)
inactive: [1] 0.012 | [2] 0.074 | [3] -0.026 | [4] 0.024 | [5] -0.011

CHP1 (UniProt Q99653)
inactive: [1] 0.022 | [2] 0.016 | [3] -0.058 | [4] -0.057 | [5] -0.015

CHST14 (UniProt Q8NCH0)
inactive: [1] 0.044 | [2] 0.022 | [3] -0.034 | [4] -0.115 | [5] 0.057

CKM (UniProt P06732)
inactive: [1] -0.078 | [2] 0.051 | [3] 0.017 | [4] -0.015 | [5] -0.023

CLDN12 (UniProt P56749)
inactive: [1] -0.196

CLINT1 isoform 3 (UniProt Q14677)
inactive: [1] 0.053 | [2] -0.039 | [3] -0.01 | [4] 0.046 | [5] 0.044

CHST12 (UniProt Q9NRB3)
inactive: [1] 0.162 | [2] 0.066 | [3] 0.198 | [4] 0.018 | [5] -0.107

CHST11 (UniProt Q9NPF2)
inactive: [1] 0.018 | [2] -0.061 | [3] 0.055 | [4] 0.007 | [5] -0.139

CLGN (UniProt O14967)
inactive: [1] -0.062 | [2] 0.043 | [3] -0.005 | [4] 0.098 | [5] 0.032

CLSPN (UniProt Q9HAW4)
inactive: [1] 0.002 | [2] -0.009 | [3] -0.043 | [4] -0.004 | [5] 0.036

Copied from the results shown (17 entries):
CLEC16A (UniProt Q2KHT3)
inactive: [1] 0.021 | [2] -0.014 | [3] -0.014 | [4] 0.025 | [5] 0.028

CMTR1 (UniProt Q8N1G2)
inactive: [1] -0.008 | [2] 0.033 | [3] 0.07 | [4] -0.009 | [5] -0.04

CISD1 (UniProt Q9NZ45)
inactive: [1] 0.061 | [2] 0.017 | [3] 0.004 | [4] 0.006 | [5] 0.026

CHMP5 (UniProt Q9NZZ3)
inactive: [1] 0.002 | [2] -0.045 | [3] 0 | [4] -0.008 | [5] 0.038

CNOT8 (UniProt Q9UFF9)
inactive: [1] -0.018 | [2] -0.097 | [3] 0.026 | [4] 0.044 | [5] -0.058

CIZ1 (UniProt Q9ULV3)
inactive: [1] 0.021 | [2] 0.047 | [3] 0.025 | [4] 0.062 | [5] 0.029

CLTB (UniProt P09497)
inactive: [1] 0.021 | [2] -0.01 | [3] -0.016 | [4] -0.01 | [5] -0.02

CNIH4 (UniProt Q9P003)
inactive: [1] 0.017 | [2] 0.001 | [3] -0.113 | [4] -0.139 | [5] 0.009

CHRAC1 (UniProt Q9NRG0)
inactive: [1] -0.08 | [2] 0.033 | [3] -0.016 | [4] -0.061 | [5] -0.054

CIB1 isoform 2 (UniProt Q99828)
inactive: [1] 0.01 | [2] 0.072 | [3] -0.026 | [4] 0.013 | [5] -0.016

CMAS (UniProt Q8NFW8)
inactive: [1] 0.032 | [2] -0.034 | [3] -0.053 | [4] 0.076 | [5] -0.016

CLPTM1 (UniProt O96005)
inactive: [1] 0.021 | [2] 0.022 | [3] 0.059 | [4] 0.021 | [5] -0.041

COL1A1 (UniProt P02452)
inactive: [1] 0.143 | [2] 0.102 | [3] 0.486 | [4] 0.114 | [5] 0.132

CNPY3 (UniProt Q9BT09)
inactive: [1] 0.025 | [2] 0.114 | [3] 0.007 | [4] -0.005 | [5] -0.01

CIAO2A (UniProt Q9H5X1)
inactive: [1] -0.091 | [2] 0.016 | [3] 0.063 | [4] -0.06 | [5] 0.016

CMPK1 (UniProt P30085)
inactive: [1] 0.012 | [2] 0.074 | [3] -0.026 | [4] 0.024 | [5] -0.011

CHP1 (UniProt Q99653)
inactive: [1] 0.022 | [2] 0.016 | [3] -0.058 | [4] -0.057 | [5] -0.015

The listing continues:

CISD3 (UniProt P0C7P0)
inactive: [1] 0.105 | [2] 0.082 | [3] 0.029 | [4] -0.089 | [5] 0.001

CNBP isoform 4 (UniProt P62633)
inactive: [1] 0.02

CMC1 (UniProt Q7Z7K0)
inactive: [1] -0.062 | [2] -0.123 | [3] -0.225 | [4] 0.115 | [5] 0.147

CLCN3 isoform 2 (UniProt P51790)
inactive: [1] 0.044 | [2] -0.006 | [3] -0.014 | [4] -0.021 | [5] 0.013

CNDP2 (UniProt Q96KP4)
inactive: [1] -0.006 | [2] 0.039 | [3] 0.023 | [4] 0.009 | [5] -0.041

CNOT4 isoform 9 (UniProt O95628)
inactive: [1] 0.009 | [2] -0.09 | [3] 0.147 | [4] -0.067 | [5] -0.055

CLPP (UniProt Q16740)
inactive: [1] 0.037 | [2] 0.153 | [3] 0.093 | [4] -0.124 | [5] 0.008

CIAO1 (UniProt O76071)
inactive: [1] -0.042 | [2] -0.008 | [3] 0.142 | [4] -0.039 | [5] -0.022

CLN6 (UniProt Q9NWW5)
inactive: [1] -0.021 | [2] 0.309 | [3] -0.15 | [4] 0.161 | [5] -0.113

CNOT11 (UniProt Q9UKZ1)
inactive: [1] -0.01 | [2] 0.017 | [3] -0.022 | [4] 0.157 | [5] 0.014

CNOT1 (UniProt A5YKK6)
inactive: [1] -0.02 | [2] 0.021 | [3] 0.031 | [4] -0.017 | [5] -0.021

CLIC4 (UniProt Q9Y696)
inactive: [1] -0.018 | [2] 0.041 | [3] 0.122 | [4] -0.002 | [5] 0.028

CLTC (UniProt Q00610)
inactive: [1] -0.008 | [2] 0.016 | [3] -0.025 | [4] -0.009 | [5] -0.016

CNTN4 (UniProt Q8IWV2)
inactive: [1] 0.093 | [2] 0.154 | [3] 0.103 | [4] -0.075 | [5] -0.106

CNPY4 (UniProt Q8N129)
inactive: [1] -0.034 | [2] -0.011 | [3] 0.014 | [4] -0.045 | [5] -0.015

COA1 (UniProt Q9GZY4)
inactive: [1] 0.03 | [2] 0.035 | [3] 0.04 | [4] 0.04 | [5] 0.065

CIRBP isoform 2 (UniProt Q14011)
inactive: [1] 0.038 | [2] -0.14 | [3] -0.066 | [4] 0.115 | [5] 0.006

CMBL (UniProt Q96DG6)
inactive: [1] 0.025 | [2] 0.062 | [3] 0.052 | [4] -0.023 | [5] 0.003

CLIP4 (UniProt Q8N3C7)
inactive: [1] -0.012 | [2] -0.086 | [3] 0.054 | [4] 0.029 | [5] 0.035

CLUH (UniProt O75153)
inactive: [1] -0.05 | [2] 0.027 | [3] 0.086 | [4] -0.016 | [5] -0.052

CHPF2 (UniProt Q9P2E5)
inactive: [1] 0.034 | [2] -0.141 | [3] 0.102 | [4] -0.029 | [5] -0.04

CIRBP (UniProt Q14011)
inactive: [1] 0.149 | [2] -0.073 | [3] -0.438 | [4] 0.262 | [5] 0.073

CNP (UniProt P09543)
inactive: [1] -0.025 | [2] 0.06 | [3] 0.091 | [4] -0.037 | [5] -0.012

CNOT9 isoform 2 (UniProt Q92600)
inactive: [1] -0.063 | [2] 0.041 | [3] 0.034 | [4] -0.03 | [5] -0.005

CKMT1A (UniProt P12532)
inactive: [1] 0.015 | [2] 0.017 | [3] -0.024 | [4] -0.002 | [5] -0.01
